Assay results from the supplement of paper PMC10849652.
Some of the results follow. Residues, ends and D or L forms follow the SMILES beside them. *: point of attachment. Cbz = O=C(OCc1ccccc1)*

Protein sequences, listed by entry. Tags and fused reporters are not part of them. Lines headed by an entry give the natural chain unless they say otherwise; changes in a name come on top.
UniProt Q9Y689: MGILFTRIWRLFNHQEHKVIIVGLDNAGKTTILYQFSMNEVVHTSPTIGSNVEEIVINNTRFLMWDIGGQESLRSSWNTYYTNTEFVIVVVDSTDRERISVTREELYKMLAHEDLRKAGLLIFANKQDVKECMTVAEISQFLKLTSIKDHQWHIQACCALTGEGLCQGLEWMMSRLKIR
UniProt Q9NVT9: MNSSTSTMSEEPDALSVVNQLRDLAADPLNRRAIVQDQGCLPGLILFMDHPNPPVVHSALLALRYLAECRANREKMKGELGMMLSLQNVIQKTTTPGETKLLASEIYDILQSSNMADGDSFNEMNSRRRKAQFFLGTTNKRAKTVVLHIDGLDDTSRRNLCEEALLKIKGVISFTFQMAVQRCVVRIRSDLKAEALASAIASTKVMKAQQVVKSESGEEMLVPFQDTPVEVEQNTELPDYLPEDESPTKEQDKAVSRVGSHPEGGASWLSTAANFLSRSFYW
UniProt Q9NVJ2: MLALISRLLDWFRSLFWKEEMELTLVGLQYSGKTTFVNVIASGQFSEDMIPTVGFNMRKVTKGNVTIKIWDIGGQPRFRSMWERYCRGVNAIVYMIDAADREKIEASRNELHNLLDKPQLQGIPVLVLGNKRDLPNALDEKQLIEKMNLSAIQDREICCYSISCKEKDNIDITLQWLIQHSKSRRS
UniProt P36542: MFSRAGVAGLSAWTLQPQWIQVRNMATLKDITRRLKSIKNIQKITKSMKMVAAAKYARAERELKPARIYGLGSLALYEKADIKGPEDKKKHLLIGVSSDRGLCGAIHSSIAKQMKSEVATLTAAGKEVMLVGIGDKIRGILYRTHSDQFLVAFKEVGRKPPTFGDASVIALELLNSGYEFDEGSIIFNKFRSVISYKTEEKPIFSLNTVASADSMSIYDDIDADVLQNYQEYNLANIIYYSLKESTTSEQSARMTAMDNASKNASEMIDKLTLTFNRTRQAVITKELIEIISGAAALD
UniProt P38606, whole entry, looked up: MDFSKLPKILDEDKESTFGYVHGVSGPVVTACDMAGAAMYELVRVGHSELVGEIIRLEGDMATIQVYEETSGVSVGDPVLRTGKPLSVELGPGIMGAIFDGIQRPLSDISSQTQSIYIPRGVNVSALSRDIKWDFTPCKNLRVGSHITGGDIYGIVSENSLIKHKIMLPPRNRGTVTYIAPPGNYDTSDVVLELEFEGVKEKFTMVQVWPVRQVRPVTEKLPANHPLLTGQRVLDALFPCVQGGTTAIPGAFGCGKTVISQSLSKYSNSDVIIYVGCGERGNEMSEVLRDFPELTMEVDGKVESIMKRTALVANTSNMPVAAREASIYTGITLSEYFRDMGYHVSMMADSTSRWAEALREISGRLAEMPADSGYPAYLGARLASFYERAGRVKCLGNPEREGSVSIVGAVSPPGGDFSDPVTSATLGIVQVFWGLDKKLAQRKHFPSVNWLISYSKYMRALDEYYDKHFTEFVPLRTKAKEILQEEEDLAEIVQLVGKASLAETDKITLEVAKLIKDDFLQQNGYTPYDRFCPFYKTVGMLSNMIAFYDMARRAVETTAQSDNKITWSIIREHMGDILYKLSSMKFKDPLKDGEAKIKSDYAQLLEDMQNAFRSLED
UniProt P23634: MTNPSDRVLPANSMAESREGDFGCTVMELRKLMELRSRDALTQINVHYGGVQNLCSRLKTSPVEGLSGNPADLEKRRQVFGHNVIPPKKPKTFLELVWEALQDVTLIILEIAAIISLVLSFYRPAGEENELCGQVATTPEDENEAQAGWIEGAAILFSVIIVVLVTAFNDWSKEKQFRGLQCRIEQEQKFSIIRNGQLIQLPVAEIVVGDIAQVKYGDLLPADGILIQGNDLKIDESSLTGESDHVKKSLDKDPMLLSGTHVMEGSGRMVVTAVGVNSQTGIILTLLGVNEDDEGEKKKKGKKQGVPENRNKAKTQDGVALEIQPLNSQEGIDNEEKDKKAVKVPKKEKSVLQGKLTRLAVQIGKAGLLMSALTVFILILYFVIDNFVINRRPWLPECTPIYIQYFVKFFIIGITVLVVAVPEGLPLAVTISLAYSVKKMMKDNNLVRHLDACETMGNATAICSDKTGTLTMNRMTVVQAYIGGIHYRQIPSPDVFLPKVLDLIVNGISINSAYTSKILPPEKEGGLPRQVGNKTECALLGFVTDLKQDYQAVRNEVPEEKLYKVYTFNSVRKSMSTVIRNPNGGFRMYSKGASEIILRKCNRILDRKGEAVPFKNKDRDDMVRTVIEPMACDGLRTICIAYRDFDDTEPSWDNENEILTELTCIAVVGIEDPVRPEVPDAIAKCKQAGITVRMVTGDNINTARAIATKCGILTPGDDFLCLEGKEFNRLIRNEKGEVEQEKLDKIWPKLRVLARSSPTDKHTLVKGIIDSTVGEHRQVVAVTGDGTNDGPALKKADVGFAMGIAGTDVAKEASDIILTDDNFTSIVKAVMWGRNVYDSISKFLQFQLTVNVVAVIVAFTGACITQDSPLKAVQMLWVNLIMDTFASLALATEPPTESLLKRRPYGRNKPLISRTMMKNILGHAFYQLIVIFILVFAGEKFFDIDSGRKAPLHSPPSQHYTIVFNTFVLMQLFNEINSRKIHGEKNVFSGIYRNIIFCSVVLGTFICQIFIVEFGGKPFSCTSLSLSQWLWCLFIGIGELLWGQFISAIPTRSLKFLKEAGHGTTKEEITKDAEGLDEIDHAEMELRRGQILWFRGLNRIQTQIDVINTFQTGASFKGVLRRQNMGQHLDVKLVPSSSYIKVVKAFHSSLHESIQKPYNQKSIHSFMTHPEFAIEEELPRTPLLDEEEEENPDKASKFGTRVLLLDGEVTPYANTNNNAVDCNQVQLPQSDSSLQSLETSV
UniProt Q9Y5K8, whole entry, looked up: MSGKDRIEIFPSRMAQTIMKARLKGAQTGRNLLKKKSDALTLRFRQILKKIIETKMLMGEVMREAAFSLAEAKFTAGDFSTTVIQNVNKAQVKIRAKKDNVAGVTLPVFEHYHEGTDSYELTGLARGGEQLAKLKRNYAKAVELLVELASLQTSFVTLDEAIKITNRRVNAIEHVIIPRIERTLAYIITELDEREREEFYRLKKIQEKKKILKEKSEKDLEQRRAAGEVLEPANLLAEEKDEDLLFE
UniProt P24539: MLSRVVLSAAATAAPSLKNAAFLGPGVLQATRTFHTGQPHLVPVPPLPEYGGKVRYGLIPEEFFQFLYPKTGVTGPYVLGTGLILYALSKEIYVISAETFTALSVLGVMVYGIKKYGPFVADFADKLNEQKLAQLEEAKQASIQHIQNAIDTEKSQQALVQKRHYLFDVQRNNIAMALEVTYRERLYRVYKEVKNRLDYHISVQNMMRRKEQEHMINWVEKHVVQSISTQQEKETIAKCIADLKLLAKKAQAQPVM
UniProt O95260: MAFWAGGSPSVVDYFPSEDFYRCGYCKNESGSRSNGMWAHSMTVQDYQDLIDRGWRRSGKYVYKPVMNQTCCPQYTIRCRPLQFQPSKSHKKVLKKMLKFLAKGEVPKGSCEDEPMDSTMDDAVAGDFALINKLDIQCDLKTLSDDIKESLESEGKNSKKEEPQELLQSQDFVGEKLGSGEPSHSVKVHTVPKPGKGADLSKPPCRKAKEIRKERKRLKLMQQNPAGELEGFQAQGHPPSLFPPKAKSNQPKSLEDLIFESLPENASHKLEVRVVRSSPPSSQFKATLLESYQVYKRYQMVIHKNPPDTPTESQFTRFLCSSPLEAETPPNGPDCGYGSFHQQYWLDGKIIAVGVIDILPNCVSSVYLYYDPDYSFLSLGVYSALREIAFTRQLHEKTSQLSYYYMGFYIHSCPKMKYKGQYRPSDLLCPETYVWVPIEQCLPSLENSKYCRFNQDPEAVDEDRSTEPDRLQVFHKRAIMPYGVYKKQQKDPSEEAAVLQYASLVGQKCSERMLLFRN
UniProt P15289: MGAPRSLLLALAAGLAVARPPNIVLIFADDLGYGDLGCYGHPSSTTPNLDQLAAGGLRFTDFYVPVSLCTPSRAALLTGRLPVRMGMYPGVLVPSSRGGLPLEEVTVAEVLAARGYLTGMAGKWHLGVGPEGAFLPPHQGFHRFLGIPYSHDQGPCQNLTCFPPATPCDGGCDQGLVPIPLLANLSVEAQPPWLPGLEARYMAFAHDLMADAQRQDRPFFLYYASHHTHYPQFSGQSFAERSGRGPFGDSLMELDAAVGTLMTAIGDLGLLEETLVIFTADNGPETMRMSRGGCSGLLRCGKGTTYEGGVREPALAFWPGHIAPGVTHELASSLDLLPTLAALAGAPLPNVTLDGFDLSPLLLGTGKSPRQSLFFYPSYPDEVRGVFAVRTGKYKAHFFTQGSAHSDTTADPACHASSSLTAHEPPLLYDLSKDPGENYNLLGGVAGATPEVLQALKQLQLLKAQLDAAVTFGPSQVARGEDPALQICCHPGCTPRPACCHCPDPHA
UniProt P16615: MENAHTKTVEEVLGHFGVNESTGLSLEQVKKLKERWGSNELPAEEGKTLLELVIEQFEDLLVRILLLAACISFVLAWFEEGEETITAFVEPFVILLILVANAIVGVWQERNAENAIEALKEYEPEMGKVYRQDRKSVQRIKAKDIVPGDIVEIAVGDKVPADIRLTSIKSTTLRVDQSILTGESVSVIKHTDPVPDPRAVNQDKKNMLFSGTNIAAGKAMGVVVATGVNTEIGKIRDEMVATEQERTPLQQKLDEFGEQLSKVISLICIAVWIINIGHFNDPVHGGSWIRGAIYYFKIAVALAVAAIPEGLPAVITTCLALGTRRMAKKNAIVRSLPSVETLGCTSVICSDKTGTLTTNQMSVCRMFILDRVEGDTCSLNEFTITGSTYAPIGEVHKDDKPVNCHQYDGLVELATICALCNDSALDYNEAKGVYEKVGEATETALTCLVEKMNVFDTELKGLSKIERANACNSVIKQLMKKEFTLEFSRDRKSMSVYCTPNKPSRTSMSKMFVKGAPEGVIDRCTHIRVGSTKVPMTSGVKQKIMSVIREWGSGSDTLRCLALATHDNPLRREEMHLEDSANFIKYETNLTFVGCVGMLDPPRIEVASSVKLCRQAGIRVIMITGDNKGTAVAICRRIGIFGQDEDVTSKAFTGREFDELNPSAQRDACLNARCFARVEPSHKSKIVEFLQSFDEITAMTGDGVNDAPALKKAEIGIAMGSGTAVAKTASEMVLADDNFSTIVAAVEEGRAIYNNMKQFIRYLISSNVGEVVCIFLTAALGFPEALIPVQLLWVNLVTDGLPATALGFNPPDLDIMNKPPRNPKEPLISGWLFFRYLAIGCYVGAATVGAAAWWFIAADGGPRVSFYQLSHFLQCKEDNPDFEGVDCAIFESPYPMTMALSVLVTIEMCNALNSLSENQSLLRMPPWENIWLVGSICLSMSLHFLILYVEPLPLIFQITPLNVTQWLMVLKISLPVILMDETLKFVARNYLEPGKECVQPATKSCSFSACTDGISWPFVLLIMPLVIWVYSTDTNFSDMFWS
UniProt P04424, whole entry, looked up: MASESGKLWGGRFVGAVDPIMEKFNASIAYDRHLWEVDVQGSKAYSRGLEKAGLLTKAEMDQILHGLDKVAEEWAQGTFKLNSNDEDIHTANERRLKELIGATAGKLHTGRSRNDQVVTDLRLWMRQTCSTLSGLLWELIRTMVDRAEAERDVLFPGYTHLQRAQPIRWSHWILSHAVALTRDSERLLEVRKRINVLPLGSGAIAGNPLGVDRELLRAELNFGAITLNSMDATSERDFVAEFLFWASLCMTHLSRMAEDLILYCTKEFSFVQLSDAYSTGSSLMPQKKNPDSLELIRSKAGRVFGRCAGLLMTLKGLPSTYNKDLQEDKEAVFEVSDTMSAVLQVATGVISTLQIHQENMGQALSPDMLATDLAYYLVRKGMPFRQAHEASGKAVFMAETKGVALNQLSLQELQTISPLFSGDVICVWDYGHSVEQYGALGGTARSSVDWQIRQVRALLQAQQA
UniProt Q96IX5: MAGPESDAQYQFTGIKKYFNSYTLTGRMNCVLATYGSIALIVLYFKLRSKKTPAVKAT
UniProt P61421, whole entry, looked up: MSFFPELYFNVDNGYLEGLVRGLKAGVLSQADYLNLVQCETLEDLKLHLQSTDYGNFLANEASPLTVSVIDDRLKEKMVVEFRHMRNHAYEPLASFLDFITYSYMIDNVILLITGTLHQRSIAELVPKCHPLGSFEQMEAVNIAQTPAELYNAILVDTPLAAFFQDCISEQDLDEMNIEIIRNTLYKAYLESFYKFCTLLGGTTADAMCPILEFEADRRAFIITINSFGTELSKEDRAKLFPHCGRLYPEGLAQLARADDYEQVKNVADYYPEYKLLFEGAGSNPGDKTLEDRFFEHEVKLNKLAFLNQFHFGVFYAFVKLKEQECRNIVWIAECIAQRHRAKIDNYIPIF

Assays:
Experiment in all cases: log2 fold change, soluble protein after heating vs DMSO (PISA); higher = thermal stabilisation; K562 cells, 10 uM, 30 min; active = over 0.2 and 3.5 SD of the protein, either way, in both replicates (recomputed)
erlotinib = compound: C#Cc1cccc(Nc2ncnc3cc(OCCOC)c(OCCOC)cc23)c1 [erlotinib]
In short: (§1)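 K562 cells at 2×10^6 cells/mL were treated with 10 μM compound for 30 min. Aliquots were heated for 3 min across 48°C-58°C, pooled, and extracted in PBS with 0.5% NP-40 at 4°C; soluble protein was the supernatant after 21,000xg for 90 min. Soluble protein was quantified by TMTpro 16plex LC-MS/MS with channel sums equalised, and reported as log2 fold change in thermal stability against DMSO controls, with values from duplicates.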

[1] = compound: C/C(=N\NC(=O)C1=CC(=CC=C1)S(=O)(=O)N2CCOCC2)/C3=C(C=CC(=C3)Cl)O
In short: as §1

[2] = compound: C1=CC(=C(C=C1Cl)C2=NC3=NC=CN=C3C(=N2)NC4=CC=NC=C4)F
In short: as §1

[3] = compound: C1=CC(=CC=C1C2=NC3=C(N2)C=C(C=C3)C(=O)N)OC4=CC=C(C=C4)Cl
In short: as §1

[4] = compound: C1=CC2=C(C=CC(=C2)/C=C\3/C(=O)NC(=NCC4=CC=CS4)S3)N=C1
In short: as §1

[5] = compound: C1=CC2=NC=CN=C2C=C1/C=C/3\C(=O)NC(=O)S3
In short: as §1

[6] = compound: C1=CC=C(C=C1)C2=NC(=C(N2)C3=CC=NC=C3)C4=CC(=C(C=C4)Cl)O
In short: as §1

[7] = compound: C1=CC=C2C(=C1)C3=NNC4=CC=CC(=C43)C2=O
In short: as §1

[8] = compound: C1CCN(C1)C(=O)NC2=CC=CC(=C2)NC3=NC=C(C(=N3)NCCC4=CN=CN4)Br
In short: as §1

[9] = compound: C1CN(CCC1(CC2=CC=C(C=C2)Cl)N)C3=NC=NC4=C3C=CN4
In short: as §1

IRAK-1-4 Inhibitor I = compound: C1COCCN1CCN2C3=CC=CC=C3N=C2NC(=O)C4=CC(=CC=C4)[N+](=O)[O-] [IRAK-1-4 Inhibitor I]
In short: as §1

ibrutinib = compound: C=CC(=O)N1CCC[C@@H](n2nc(-c3ccc(Oc4ccccc4)cc3)c3c(N)ncnc32)C1 [ibrutinib]
In short: as §1

[10] = compound: CC(=O)c1cnc2ccc(-c3cc(Cl)c(O)c(Cl)c3)nc2c1N[C@H]1CC[C@H](CN(C)C)CC1
In short: as §1

ralimetinib = compound: CC(C)(C)Cn1c(N)nc2ccc(-c3[nH]c(C(C)(C)C)nc3-c3ccc(F)cc3)nc21 [ralimetinib]
In short: as §1

[11] = compound: CC(C)(O)CC(=O)NCCn1ccc2ncnc(Nc3ccc(Oc4cccc(C(F)(F)F)c4)c(Cl)c3)c21
In short: as §1

[12] = compound: CC(C)C1=C2N=C(C=C(N2N=C1)NCC3=CC=CC=C3)NCCCCCCN
In short: as §1

[13] = compound: CC(C)C[C@@H](C=O)NC(=O)[C@H](CC(C)C)NC(=O)[C@H](CC(C)C)NC(=O)OCc1ccccc1
In short: as §1

pinometostat = compound: CC(C)N(C[C@H]1O[C@@H](n2cnc3c(N)ncnc32)[C@H](O)[C@@H]1O)[C@H]1C[C@@H](CCc2nc3cc(C(C)(C)C)ccc3[nH]2)C1 [pinometostat]
In short: as §1

[14] = compound: CC1=C(C(CC(=O)N1)C2=CC=C(C=C2)C(F)(F)F)C(=O)NC3=C(C=C4C(=C3)C=NN4)F
In short: as §1

[15] = compound: CC1=C(C2=C(C=C1)C(=O)C3=CC=CC=C3N2CCCN)C
In short: as §1

Measured: log2 fold change

ARL5A (UniProt Q9Y689)
inactive: erlotinib -0.052 | [1] -0.036 | [2] -0.007 | [3] -0.068 | [4] 0.039 | [5] -0.034 | [6] 0.106 | [7] 0 | [8] -0.043 | [9] 0.018 | IRAK-1-4 Inhibitor I 0.061 | ibrutinib 0.067 | [10] 0.028 | ralimetinib 0.016 | [11] -0.046 | [12] 0.056 | [13] -0.053 | pinometostat -0.025 | [14] 0.05 | [15] 0.19

ARMC1 (UniProt Q9NVT9)
inactive: erlotinib 0.004 | [1] 0.039 | [2] 0.044 | [3] 0.003 | [4] 0.022 | [5] 0.038 | [6] -0.009 | [7] 0.022 | [8] 0.002 | [9] 0.003 | IRAK-1-4 Inhibitor I 0.041 | ibrutinib -0.027 | [10] -0.078 | ralimetinib 0.054 | [11] -0.15 | [12] -0.139 | [13] 0.026 | pinometostat 0.012 | [14] 0.085 | [15] 0.048

ARL8B (UniProt Q9NVJ2)
inactive: erlotinib 0.013 | [1] 0.031 | [2] 0.019 | [3] -0.007 | [4] -0.018 | [5] 0.022 | [6] 0.025 | [7] -0.014 | [8] 0.025 | [9] 0.056 | IRAK-1-4 Inhibitor I 0.034 | ibrutinib 0.02 | [10] -0.013 | ralimetinib -0.032 | [11] 0.006 | [12] -0.093 | [13] 0 | pinometostat -0.038 | [14] -0.024 | [15] -0.025

ATP5F1C (UniProt P36542)
inactive: erlotinib -0.006 | [1] -0.009 | [2] 0.013 | [3] -0.036 | [4] 0.036 | [5] 0.021 | [6] -0.041 | [7] 0.004 | [8] 0.014 | [9] 0.034 | IRAK-1-4 Inhibitor I 0.008 | ibrutinib -0.005 | [10] 0.015 | ralimetinib -0.068 | [11] 0.031 | [12] 0.032 | [13] -0.055 | pinometostat -0.01 | [14] 0.025 | [15] 0.015

ATP6V1A (UniProt P38606)
inactive: erlotinib -0.027 | [1] 0.009 | [2] -0.034 | [3] 0.018 | [4] -0.02 | [5] 0.009 | [6] -0.124 | [7] 0 | [8] -0.033 | [9] -0.035 | IRAK-1-4 Inhibitor I 0.002 | ibrutinib 0.016 | [10] -0.029 | ralimetinib 0.027 | [11] 0.031 | [12] -0.175 | [13] 0.014 | pinometostat 0.003 | [14] 0.008 | [15] 0.014

ATP2B4 (UniProt P23634)
inactive: erlotinib 0.056 | [1] 0.011 | [2] -0.131 | [3] 0.011 | [4] -0.061 | [5] 0.013 | [6] -0.014 | [7] -0.003 | [8] -0.002 | [9] 0.119 | IRAK-1-4 Inhibitor I 0.051 | ibrutinib 0.081 | [10] -0.018 | ralimetinib -0.05 | [11] 0.036 | [12] 0.158 | [13] 0 | pinometostat -0.003 | [14] -0.006 | [15] 0.032

ATP6V1D (UniProt Q9Y5K8)
inactive: erlotinib -0.019 | [1] -0.016 | [2] -0.002 | [3] 0.018 | [4] 0.04 | [5] 0.043 | [6] -0.05 | [7] -0.002 | [8] 0.017 | [9] 0.003 | IRAK-1-4 Inhibitor I 0.007 | ibrutinib -0.009 | [10] -0.018 | ralimetinib 0.013 | [11] 0.056 | [12] -0.138 | [13] 0.036 | pinometostat -0.038 | [14] 0.007 | [15] 0.005

ATP5PB (UniProt P24539)
inactive: erlotinib -0.039 | [1] -0.007 | [2] 0.069 | [3] 0 | [4] -0.02 | [5] 0.026 | [6] 0.011 | [7] 0.028 | [8] 0.015 | [9] 0.026 | IRAK-1-4 Inhibitor I 0.014 | ibrutinib 0 | [10] 0.04 | ralimetinib -0.037 | [11] -0.034 | [12] 0.006 | [13] -0.066 | pinometostat -0.059 | [14] 0.019 | [15] 0.025

ATE1 isoform 2 (UniProt O95260)
inactive: erlotinib -0.059 | [1] 0.034 | [2] 0.007 | [3] 0.024 | [4] 0.03 | [5] 0.037 | [6] -0.076 | [7] 0.03 | [8] 0.021 | [9] 0.049 | IRAK-1-4 Inhibitor I 0.068 | ibrutinib -0.081 | [10] 0 | ralimetinib -0.037 | [11] 0.039 | [12] 0.013 | [13] 0.015 | pinometostat -0.103 | [14] -0.029 | [15] -0.034

ARSA (UniProt P15289)
inactive: erlotinib 0.094 | [1] 0.011 | [2] -0.129 | [3] 0.103 | [4] 0.016 | [5] -0.015 | [6] -0.082 | [7] -0.044 | [8] -0.057 | [9] 0.123 | IRAK-1-4 Inhibitor I -0.046 | ibrutinib 0.108 | [10] 0.015 | ralimetinib -0.003 | [11] 0.057 | [12] 0.047 | [13] 0.084 | pinometostat -0.058 | [14] 0.016 | [15] 0.06

Three consecutive entries out of the list so far, for reference:
ATP6V1D (UniProt Q9Y5K8)
inactive: erlotinib -0.019 | [1] -0.016 | [2] -0.002 | [3] 0.018 | [4] 0.04 | [5] 0.043 | [6] -0.05 | [7] -0.002 | [8] 0.017 | [9] 0.003 | IRAK-1-4 Inhibitor I 0.007 | ibrutinib -0.009 | [10] -0.018 | ralimetinib 0.013 | [11] 0.056 | [12] -0.138 | [13] 0.036 | pinometostat -0.038 | [14] 0.007 | [15] 0.005

ATP5PB (UniProt P24539)
inactive: erlotinib -0.039 | [1] -0.007 | [2] 0.069 | [3] 0 | [4] -0.02 | [5] 0.026 | [6] 0.011 | [7] 0.028 | [8] 0.015 | [9] 0.026 | IRAK-1-4 Inhibitor I 0.014 | ibrutinib 0 | [10] 0.04 | ralimetinib -0.037 | [11] -0.034 | [12] 0.006 | [13] -0.066 | pinometostat -0.059 | [14] 0.019 | [15] 0.025

ATE1 isoform 2 (UniProt O95260)
inactive: erlotinib -0.059 | [1] 0.034 | [2] 0.007 | [3] 0.024 | [4] 0.03 | [5] 0.037 | [6] -0.076 | [7] 0.03 | [8] 0.021 | [9] 0.049 | IRAK-1-4 Inhibitor I 0.068 | ibrutinib -0.081 | [10] 0 | ralimetinib -0.037 | [11] 0.039 | [12] 0.013 | [13] 0.015 | pinometostat -0.103 | [14] -0.029 | [15] -0.034

Continued:

ATP7A isoform 3 (UniProt Q04656)
inactive: erlotinib 0.052 | [1] -0.022 | [2] -0.03 | [3] 0.037 | [4] 0.019 | [5] 0.026 | [6] 0.016 | [7] -0.021 | [8] 0.004 | [9] -0.004 | IRAK-1-4 Inhibitor I 0.007 | ibrutinib -0.013 | [10] -0.008 | ralimetinib 0.005 | [11] -0.013 | [12] 0.113 | [13] -0.012 | pinometostat -0.009 | [14] -0.014 | [15] -0.007

ATP2A2 (UniProt P16615)
inactive: erlotinib -0.016 | [1] 0.024 | [2] 0.066 | [3] -0.02 | [4] 0.019 | [5] 0.049 | [6] 0.018 | [7] -0.007 | [8] 0.014 | [9] 0.043 | IRAK-1-4 Inhibitor I 0.017 | ibrutinib -0.033 | [10] -0.025 | ralimetinib -0.044 | [11] -0.009 | [12] -0.039 | [13] -0.018 | pinometostat -0.03 | [14] -0.027 | [15] 0.028

ASL (UniProt P04424)
inactive: erlotinib 0.036 | [1] -0.018 | [2] 0.049 | [3] 0.002 | [4] 0.01 | [5] -0.011 | [6] 0.015 | [7] 0 | [8] -0.002 | [9] 0.044 | IRAK-1-4 Inhibitor I 0.031 | ibrutinib -0.004 | [10] 0.01 | ralimetinib -0.035 | [11] -0.017 | [12] -0.011 | [13] -0.051 | pinometostat 0.007 | [14] -0.027 | [15] 0.022

ATP5MD (UniProt Q96IX5)
inactive: erlotinib -0.076 | [1] 0.114 | [2] 0.11 | [3] 0.007 | [4] -0.039 | [5] -0.085 | [6] -0.046 | [7] -0.021 | [8] 0.077 | [9] 0.126 | IRAK-1-4 Inhibitor I 0.078 | ibrutinib 0.107 | [10] 0 | ralimetinib -0.038 | [11] 0.024 | [12] 0.051 | [13] 0.014 | pinometostat 0.016 | [14] 0.061 | [15] 0.028

ATP6V0D1 (UniProt P61421)
inactive: erlotinib -0.059 | [1] -0.004 | [2] -0.063 | [3] 0.099 | [4] 0.134 | [5] 0.051 | [6] -0.058 | [7] 0.2 | [8] -0.083 | [9] -0.205 | IRAK-1-4 Inhibitor I -0.035 | ibrutinib -0.049 | [10] -0.016 | ralimetinib -0.036 | [11] -0.022 | [12] -0.358 | [13] 0.001 | pinometostat 0.131 | [14] 0.068 | [15] 0.097
